Data on 4 molecules can be found in PubChem BioAssay AID188 (DTP/NCI, 2004).

Structures are written as SMILES. Shown are survivors of the treated group in tumour-free mice. Counts of survivors are from the toxicity check (mostly the fifth day) where no day follows; animals may have died later. Schedules are NCI's codes, read here as Q, the interval in days (D) or hours (H), X, the number of doses. Some entries were tested several times; their values stand side by side, smallest first.

This assay relates to CD2F1 mice, nontumored, toxicity/survival. In words: NCI In Vivo Anticancer Drug Screen. Data for tumor model Nontumored Animals (Toxicity Test) in CD2F1 (CDF1) mice.

Regarding `Cc1ncc([N+](=O)[O-])n1CCO`, the survivor count is 3 of 3 (dose: 62.5 mg/kg/injection, schedule: Q01DX005 (ip), vehicle: saline with Tween-80); 3 of 3 (dose: 125.0 mg/kg/injection, schedule: Q01DX005 (ip), vehicle: saline with Tween-80); 3 of 3 (dose: 250.0 mg/kg/injection, schedule: Q01DX001 (ip), vehicle: saline with Tween-80); 3 of 3 (dose: 250.0 mg/kg/injection, schedule: Q01DX005 (ip), vehicle: saline with Tween-80); 3 of 3 (dose: 500.0 mg/kg/injection, schedule: Q01DX001 (ip), vehicle: saline with Tween-80); 3 of 3 (dose: 500.0 mg/kg/injection, schedule: Q01DX005 (ip), vehicle: saline with Tween-80). Moreover, the survivor count (dose: 1000.0 mg/kg/injection, schedule: Q01DX001 (ip), vehicle: saline with Tween-80) is on record as 3 of 3 and the survivor count (dose: 1000.0 mg/kg/injection, schedule: Q01DX005 (ip), vehicle: saline with Tween-80) is recorded as 3 of 3.
In the case of `CC(=O)Oc1cc2c3c(c1)-c1c(ccc(OC(C)=O)c1OC(C)=O)CC3NCC2` (stereo unspecified), the survivor count was 2 of 2 (dose: 1.0 mg/kg/injection, schedule: Q01DX001 (ip), vehicle: DMSO); 2 of 2 (dose: 10.0 mg/kg/injection, schedule: Q01DX001 (ip), vehicle: DMSO); 0 of 2 (dose: 100.0 mg/kg/injection, schedule: Q01DX001 (ip), vehicle: DMSO).
`Nc1ccc(-c2c(N)nc(Br)c3ccccc23)cc1`: the survivor count runs as follows: (dose: 1.0 mg/kg/injection, schedule: Q01DX001 (ip), vehicle: saline with Tween-80) 2 of 2; (dose: 10.0 mg/kg/injection, schedule: Q01DX001 (ip), vehicle: saline with Tween-80) 2 of 2; (dose: 100.0 mg/kg/injection, schedule: Q01DX001 (ip), vehicle: saline with Tween-80) 2 of 2.
Turning to `C1CC[N-]CC1.C1CC[N-]CC1.C1CC[N-]CC1.[Cl][Rh]([Cl])[Cl]`, the survivor count (dose: 1.0 mg/kg/injection, schedule: Q03HX024 (ip), vehicle: saline) was 5 of 8 and 8 of 8; the survivor count (dose: 2.0 mg/kg/injection, schedule: Q03HX008 (ip), vehicle: saline) is on record as 8 of 8; the survivor count (dose: 2.0 mg/kg/injection, schedule: Q03HX016 (ip), vehicle: saline) is recorded as 8 of 8; the survivor count (dose: 2.0 mg/kg/injection, schedule: Q03HX024 (ip), vehicle: saline) is listed as 8 of 8; the survivor count (dose: 4.0 mg/kg/injection, schedule: Q01DX009 (ip), vehicle: saline) is 8 of 8; the survivor count (dose: 4.0 mg/kg/injection, schedule: Q03HX008 (ip), vehicle: saline) was 8 of 8. Besides, the survivor count is, setting by setting: (dose: 4.0 mg/kg/injection, schedule: Q03HX016 (ip), vehicle: saline) 8 of 8; (dose: 4.0 mg/kg/injection, schedule: Q03HX024 (ip), vehicle: saline) 8 of 8; (dose: 8.0 mg/kg/injection, schedule: Q01DX009 (ip), vehicle: saline) 8 of 8; (dose: 8.0 mg/kg/injection, schedule: Q03HX008 (ip), vehicle: saline) 8 of 8; (dose: 8.0 mg/kg/injection, schedule: Q03HX016 (ip), vehicle: saline) 7 of 8 and 8 of 8; (dose: 8.0 mg/kg/injection, schedule: Q03HX024 (ip), vehicle: saline) 8 of 8. In addition, the survivor count runs as follows: (dose: 8.0 mg/kg/injection, schedule: Q04DX003 (ip), vehicle: saline) 8 of 8; (dose: 16.0 mg/kg/injection, schedule: Q01DX001 (ip), vehicle: saline) 8 of 8; (dose: 16.0 mg/kg/injection, schedule: Q01DX009 (ip), vehicle: saline) 8 of 8; (dose: 16.0 mg/kg/injection, schedule: Q03HX008 (ip), vehicle: saline) 8 of 8; (dose: 16.0 mg/kg/injection, schedule: Q03HX016 (ip), vehicle: saline) 8 of 8; (dose: 16.0 mg/kg/injection, schedule: Q03HX024 (ip), vehicle: saline) 8 of 8. Also, the survivor count (dose: 16.0 mg/kg/injection, schedule: Q04DX003 (ip), vehicle: saline) is 8 of 8; the survivor count (dose: 16.0 mg/kg/injection, schedule: Q08DX002 (ip), vehicle: saline) was 8 of 8; the survivor count (dose: 32.0 mg/kg/injection, schedule: Q01DX001 (ip), vehicle: saline) was 8 of 8; the survivor count (dose: 32.0 mg/kg/injection, schedule: Q01DX009 (ip), vehicle: saline) is listed as 8 of 8; the survivor count (dose: 32.0 mg/kg/injection, schedule: Q03HX008 (ip), vehicle: saline) is 7 of 8 and 8 of 8; the survivor count (dose: 32.0 mg/kg/injection, schedule: Q03HX016 (ip), vehicle: saline) is 4 of 8 and 8 of 8. Also, the survivor count was 7 of 8 and 8 of 8 (dose: 32.0 mg/kg/injection, schedule: Q03HX024 (ip), vehicle: saline); 8 of 8 (dose: 32.0 mg/kg/injection, schedule: Q04DX003 (ip), vehicle: saline); 8 of 8 (dose: 32.0 mg/kg/injection, schedule: Q08DX002 (ip), vehicle: saline); 8 of 8 (dose: 64.0 mg/kg/injection, schedule: Q01DX001 (ip), vehicle: saline); 7 of 8 and 8 of 8 (dose: 64.0 mg/kg/injection, schedule: Q01DX009 (ip), vehicle: saline); 0 of 8 and 2 of 8 (dose: 64.0 mg/kg/injection, schedule: Q03HX008 (ip), vehicle: saline). Also, the survivor count (dose: 64.0 mg/kg/injection, schedule: Q03HX016 (ip), vehicle: saline) is 0 of 8 and 3 of 8; the survivor count (dose: 64.0 mg/kg/injection, schedule: Q04DX003 (ip), vehicle: saline) is 8 of 8; the survivor count (dose: 64.0 mg/kg/injection, schedule: Q08DX002 (ip), vehicle: saline) is listed as 8 of 8; the survivor count (dose: 128.0 mg/kg/injection, schedule: Q01DX001 (ip), vehicle: saline) is recorded as 7 of 8; the survivor count (dose: 128.0 mg/kg/injection, schedule: Q01DX009 (ip), vehicle: saline) is 1 of 8 and 3 of 8; the survivor count (dose: 128.0 mg/kg/injection, schedule: Q04DX003 (ip), vehicle: saline) is listed as 8 of 8. The survivor count reads like this: (dose: 128.0 mg/kg/injection, schedule: Q08DX002 (ip), vehicle: saline) 7 of 8 and 8 of 8; (dose: 256.0 mg/kg/injection, schedule: Q01DX001 (ip), vehicle: saline) 4 of 8; (dose: 256.0 mg/kg/injection, schedule: Q04DX003 (ip), vehicle: saline) 2 of 8 and 3 of 8; (dose: 256.0 mg/kg/injection, schedule: Q08DX002 (ip), vehicle: saline) 0 of 8 and 2 of 8; (dose: 512.0 mg/kg/injection, schedule: Q01DX001 (ip), vehicle: saline) 0 of 8 and 2 of 8; (dose: 512.0 mg/kg/injection, schedule: Q08DX002 (ip), vehicle: saline) 1 of 8 and 4 of 8.
